# Patent publication US10471127B2 (Mederis Diabetes, LLC, priority 2011, dated 2019)
# Assay: general procedure: Fmoc solid-phase peptide synthesis; Rink amide resin; DIC/HOBt
# Details: whole synthesis, analytical hplc (30-60% CH3CN in 0.1% TFA)/mass spectrometry
substance,measurement,value
His-Aib-Gln-Gly-Thr-Phe-Thr-Ser-Asp-Bip-Ser-Lys-Tyr-Leu-Glu-Ser-Lys(1'-dodecyl beta-D-glucuronyl)-NH2,final HPLC purity,98.03%
